Data taken from PMC7546217.
These are yes or no findings as the source states them, for the method shown. In cells and extracts the contact can be indirect. Some results given as binding are weak or reduced against the parent protein; the word gives no strength.

Protein sequences, listed by entry. Tags and fused reporters are not part of them.
UniProt P21333: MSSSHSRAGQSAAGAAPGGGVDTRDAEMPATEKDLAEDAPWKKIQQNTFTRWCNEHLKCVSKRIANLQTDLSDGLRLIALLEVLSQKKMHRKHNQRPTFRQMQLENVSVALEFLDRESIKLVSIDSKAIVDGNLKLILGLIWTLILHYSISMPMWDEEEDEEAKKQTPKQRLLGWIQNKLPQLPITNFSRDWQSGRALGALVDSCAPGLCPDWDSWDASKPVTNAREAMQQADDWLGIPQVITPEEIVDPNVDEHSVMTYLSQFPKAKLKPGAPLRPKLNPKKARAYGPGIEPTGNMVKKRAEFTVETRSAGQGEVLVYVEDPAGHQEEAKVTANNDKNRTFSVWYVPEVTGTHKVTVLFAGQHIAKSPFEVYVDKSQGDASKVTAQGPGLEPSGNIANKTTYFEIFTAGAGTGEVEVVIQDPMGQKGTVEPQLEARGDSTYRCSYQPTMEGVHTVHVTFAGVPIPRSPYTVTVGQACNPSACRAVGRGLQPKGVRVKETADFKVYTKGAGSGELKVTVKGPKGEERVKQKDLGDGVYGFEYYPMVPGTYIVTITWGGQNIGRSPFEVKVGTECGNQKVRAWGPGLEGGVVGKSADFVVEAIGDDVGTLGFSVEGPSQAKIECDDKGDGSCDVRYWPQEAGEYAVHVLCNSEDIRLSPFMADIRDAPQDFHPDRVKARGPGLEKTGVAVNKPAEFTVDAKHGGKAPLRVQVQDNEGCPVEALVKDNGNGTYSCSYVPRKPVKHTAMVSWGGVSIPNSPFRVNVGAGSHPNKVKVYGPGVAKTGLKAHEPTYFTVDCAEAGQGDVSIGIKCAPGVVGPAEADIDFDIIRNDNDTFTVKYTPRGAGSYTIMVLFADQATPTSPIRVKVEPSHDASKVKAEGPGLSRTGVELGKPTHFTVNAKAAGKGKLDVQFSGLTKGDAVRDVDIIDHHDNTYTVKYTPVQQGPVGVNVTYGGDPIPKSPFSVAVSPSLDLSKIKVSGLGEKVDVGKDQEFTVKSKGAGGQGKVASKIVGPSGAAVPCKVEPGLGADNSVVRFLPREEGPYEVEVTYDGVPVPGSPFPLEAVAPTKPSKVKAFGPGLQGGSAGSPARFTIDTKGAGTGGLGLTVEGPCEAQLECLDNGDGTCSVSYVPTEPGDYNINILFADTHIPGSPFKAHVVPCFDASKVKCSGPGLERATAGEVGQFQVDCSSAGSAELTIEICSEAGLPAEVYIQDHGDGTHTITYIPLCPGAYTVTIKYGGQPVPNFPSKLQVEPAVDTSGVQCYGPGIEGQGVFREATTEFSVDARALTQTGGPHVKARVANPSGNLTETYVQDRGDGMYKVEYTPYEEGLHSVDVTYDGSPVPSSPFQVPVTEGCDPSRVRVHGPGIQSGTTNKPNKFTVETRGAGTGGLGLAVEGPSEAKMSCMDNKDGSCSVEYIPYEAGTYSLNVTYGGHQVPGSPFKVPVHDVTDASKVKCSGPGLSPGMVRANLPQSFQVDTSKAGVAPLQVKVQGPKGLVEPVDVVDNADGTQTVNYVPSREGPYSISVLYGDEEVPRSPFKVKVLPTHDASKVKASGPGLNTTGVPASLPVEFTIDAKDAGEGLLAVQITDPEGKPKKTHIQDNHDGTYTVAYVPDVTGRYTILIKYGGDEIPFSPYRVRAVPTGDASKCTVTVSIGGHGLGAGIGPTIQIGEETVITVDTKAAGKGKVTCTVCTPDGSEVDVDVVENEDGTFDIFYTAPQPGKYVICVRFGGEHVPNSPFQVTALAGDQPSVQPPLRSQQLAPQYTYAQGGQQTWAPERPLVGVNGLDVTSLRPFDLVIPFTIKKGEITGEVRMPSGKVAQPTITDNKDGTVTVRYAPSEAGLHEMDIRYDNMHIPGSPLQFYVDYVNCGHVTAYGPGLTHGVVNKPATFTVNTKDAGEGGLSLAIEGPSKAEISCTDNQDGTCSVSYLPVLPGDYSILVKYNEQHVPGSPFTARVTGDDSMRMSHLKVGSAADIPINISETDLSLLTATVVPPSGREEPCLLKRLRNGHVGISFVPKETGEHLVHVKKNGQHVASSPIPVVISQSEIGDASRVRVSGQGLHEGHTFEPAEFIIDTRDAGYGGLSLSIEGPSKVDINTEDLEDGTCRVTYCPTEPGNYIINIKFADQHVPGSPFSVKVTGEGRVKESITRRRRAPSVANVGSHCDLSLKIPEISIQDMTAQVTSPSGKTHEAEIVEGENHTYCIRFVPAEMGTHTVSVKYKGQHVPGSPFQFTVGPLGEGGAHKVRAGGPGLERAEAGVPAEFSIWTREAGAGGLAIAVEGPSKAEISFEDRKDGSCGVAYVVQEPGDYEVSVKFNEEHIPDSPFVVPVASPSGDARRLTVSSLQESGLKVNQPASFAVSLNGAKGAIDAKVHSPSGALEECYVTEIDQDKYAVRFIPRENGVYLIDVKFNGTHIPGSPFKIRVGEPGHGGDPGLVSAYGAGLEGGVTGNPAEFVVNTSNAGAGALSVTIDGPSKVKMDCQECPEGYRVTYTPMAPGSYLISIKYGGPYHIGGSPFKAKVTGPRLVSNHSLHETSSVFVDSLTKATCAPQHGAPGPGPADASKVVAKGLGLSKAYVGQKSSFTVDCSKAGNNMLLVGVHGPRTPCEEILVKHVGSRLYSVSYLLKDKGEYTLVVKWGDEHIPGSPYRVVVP
UniProt P03466: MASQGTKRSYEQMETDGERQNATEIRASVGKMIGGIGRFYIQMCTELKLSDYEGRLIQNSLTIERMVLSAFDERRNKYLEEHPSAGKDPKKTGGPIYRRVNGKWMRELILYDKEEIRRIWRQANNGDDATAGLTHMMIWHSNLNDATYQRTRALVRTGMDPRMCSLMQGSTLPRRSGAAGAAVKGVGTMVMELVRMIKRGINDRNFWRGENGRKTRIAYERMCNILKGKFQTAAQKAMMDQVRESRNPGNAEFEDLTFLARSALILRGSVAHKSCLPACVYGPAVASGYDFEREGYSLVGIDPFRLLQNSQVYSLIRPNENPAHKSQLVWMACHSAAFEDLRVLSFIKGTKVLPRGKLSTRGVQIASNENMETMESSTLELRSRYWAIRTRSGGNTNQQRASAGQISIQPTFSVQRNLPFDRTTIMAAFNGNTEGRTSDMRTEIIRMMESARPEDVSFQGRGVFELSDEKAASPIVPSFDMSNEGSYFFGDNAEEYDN

Molecular target: Filamin A (FLNA), endogenous in HEK293 cells (human (endogenous in HEK293)) (UniProt P21333)
Assay: co-IP

In the case of “Influenza A virus nucleoprotein (NP) of A/Puerto Rico/8/34 (H1N1), expressed from the pcDNA3.1 myc-vector (from UniProt P03466 1-498)”, the binding is reported as “binds”.
